# Where a name gives a salt, the structure may show the parent alone. The list shows a part of the results. Single values are uncertain, as repeats are few or missing.
# Test system: Reh
# Experiment: S-phase gammaH2AX median, Z-score vs plate median (drug alone); higher = more S-phase DNA damage
# Settings: MK1775 concentration 0 nM; 10 µM; 4 h
row,SMILES,S-phase gammaH2AX median (Z-score)
1,CCCn1cnc2c1c(=O)n(CCCCC(C)=O)c(=O)n2C [Propentofylline],-0.0166
2,CCCCCCCCCCCCCCSCC(=O)O [Tetradecylthioacetic acid],-0.0601
3,O=C(O)CN(CCN(CC(=O)O)CC(=O)O)CCN(CC(=O)O)CC(=O)O [Diethylenetriaminepentaacetic acid],0.12
4,CC(C)(CO)Cc1cc(C(C)(C)C)c(O)c(C(C)(C)C)c1,0.0854
5,C#CCN(C)CCCOc1ccc(Cl)cc1Cl [Clorgyline hydrochloride],0.0781
6,CC(C)NCC(O)c1cc(O)cc(O)c1 (stereo not drawn) [Metaproterenol hemisulfate],-0.596
7,"CC(=O)/C(C)=N/O [2,3-Butanedione monoxime]",0.0757
8,O=[N+]([O-])c1cc2nc(O)c(O)nc2cc1[N+](=O)[O-],-0.164
9,COc1ccc(CCNC[C@@H](O)c2ccc(O)cc2)cc1OC [R(-)-Denopamine],-0.574
10,O=C(CCCN1CCC(O)(c2cccc(C(F)(F)F)c2)CC1)c1ccc(F)cc1 [Trifluperidol hydrochloride],-0.574
11,CN/C(=N\c1ccc(C2=NNC(=O)CC2C)cc1)NC#N (stereo not drawn),0.151
12,COc1ccccc1N1CCN(CCCNc2cc(=O)n(C)c(=O)n2C)CC1 [Urapidil hydrochloride],-0.147
13,Oc1cc2c(c(Cl)c1O)CCNCC2c1ccccc1 (stereo not drawn) [(?)-6-Chloro-PB hydrobromide],-0.38
14,O=C(O)CCCCC1CCSS1 (stereo not drawn) [(?)-alpha-Lipoic Acid],0.174
15,COCC(=O)O[C@]1(CCN(C)CCCc2nc3ccccc3[nH]2)CCc2cc(F)ccc2[C@@H]1C(C)C [Mibefradil dihydrochloride],-0.27
16,O=c1c2ccccc2nc2n1CCc1c-2[nH]c2ccccc12 [Rutaecarpine],-0.00473
17,CN(C)c1ccccc1CN1CCCN(Cc2ccccc2N(C)C)C1c1ccncc1,-0.0112
18,OC[C@H]1O[C@@H](n2cnc3c2N=CNC[C@H]3O)C[C@@H]1O [Pentostatin],0.0514
19,S=C(NCc1ccc2c(c1)OCO2)N1CCN(c2ncnc3c2oc2ccccc23)CC1 [Amuvatinib (MP-470)],0.08

row,SMILES,S-phase gammaH2AX median (Z-score)
1,Cc1c(CCOc2ccc(C(=O)O)cc2)c2cc(Cl)ccc2n1C(c1ccccc1)c1ccccc1,0.174
2,CC1(C)CCC2=C(O1)c1ccccc1C(=O)C2=O [beta-Lapachone],-0.0346
3,Cn1cnc([N+](=O)[O-])c1Sc1ncnc2[nH]cnc12 [Azathioprine],0.0175
4,"Cn1cnc([N+](=O)[O-])c1Sc1ncnc2[nH]cnc12 [Azathioprine (Azasan, Imuran)]",0.147
5,COc1c2c(nc3ccccc13)OC(C(C)(O)CO)C2 (stereo not drawn) [Dubinidine],0
6,CC(C)C(=O)Nc1ccc([N+](=O)[O-])c(C(F)(F)F)c1 [Flutamide],-0.0063
7,CC(C)C(=O)Nc1ccc([N+](=O)[O-])c(C(F)(F)F)c1 [Flutamide (Eulexin)],0.0197
8,CC1COc2c(N3CCN(C)CC3)c(F)cc3c(=O)c(C(=O)O)cn1c23 (stereo not drawn) [Ofloxacin],0.3
9,CCOC(=O)Nc1ccc(NCc2ccc(F)cc2)nc1N [Flupirtine maleate],-0.0882
10,O=C(O)/C=C/c1cnc[nH]1 [4-Imidazoleacrylic acid],0.133
11,Clc1ccc(Nc2nnc(Cc3ccncc3)c3ccccc23)cc1 [Vatalanib dihydrochloride (PTK787)],-0.0708
12,Cn1cc(-c2ccc3nnc(Sc4ccc5ncccc5c4)n3n2)cn1,-0.0367
13,Cc1cc(O)c2c(c1)C(=O)c1cc(O)cc(O)c1C2=O [Emodin],0.198
14,COC(=O)c1ccc2c(C(=Nc3ccc(N(C)C(=O)CN4CCN(C)CC4)cc3)c3ccccc3)c(O)[nH]c2c1 [BIBF1120 (Vargatef)],-0.0561
15,"Nc1ccc2c3c(cccc13)C(=O)NC2=O [4-Amino-1,8-naphthalimide]",0.458
16,CN(C)CCCN1c2ccccc2CCc2ccccc21 [Imipramine hydrochloride],0.101
17,NC(CO)C(=O)NNCc1ccc(O)c(O)c1O (stereo not drawn) [Benserazide hydrochloride],-0.0233
18,CCCn1c(=O)c2[nH]c(-c3ccc(OCC(=O)Nc4ccc(C#N)cc4)cc3)nc2n(CCC)c1=O,0.00473
19,O=C1C(SCCO)=C(SCCO)C(=O)c2ccccc21,10.6

# Part of the list above, set out differently:
row	SMILES	S-phase gammaH2AX median (Z-score)
2	CC1(C)CCC2=C(O1)c1ccccc1C(=O)C2=O [beta-Lapachone]	-0.0346
3	Cn1cnc([N+](=O)[O-])c1Sc1ncnc2[nH]cnc12 [Azathioprine]	0.0175

# From the supplement of paper PMC5355238
